Reference: PMC5335694
No constants are given. Whether binding was seen depends on the method and setting. Binding seen in cells or lysates may run through a third protein. Some binding calls cover weakened binding; strength is not graded here. Where a sequence is shown, tags or fusion partners need not be part of it.

Target: T1, myc-TTC5 (UniProt Q99LG4)
T1 sequence: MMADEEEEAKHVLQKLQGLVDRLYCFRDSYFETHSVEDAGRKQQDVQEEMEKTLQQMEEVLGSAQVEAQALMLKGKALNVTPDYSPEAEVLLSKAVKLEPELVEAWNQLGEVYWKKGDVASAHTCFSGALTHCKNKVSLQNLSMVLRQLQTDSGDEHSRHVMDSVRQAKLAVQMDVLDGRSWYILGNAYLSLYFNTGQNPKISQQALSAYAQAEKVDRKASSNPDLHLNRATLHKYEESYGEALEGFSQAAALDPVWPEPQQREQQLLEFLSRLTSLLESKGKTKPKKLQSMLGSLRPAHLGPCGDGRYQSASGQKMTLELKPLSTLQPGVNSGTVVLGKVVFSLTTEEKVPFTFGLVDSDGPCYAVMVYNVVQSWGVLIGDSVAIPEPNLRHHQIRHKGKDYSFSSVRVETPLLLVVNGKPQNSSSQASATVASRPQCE
Test: co-IP; lysates of 293T cells over-expressing myc-TTC5 and EGFP-TRIP13; immunoprecipitation with anti-c-Myc magnetic beads, blots probed for TTC5 and EGFP

B1: EGFP-TRIP13 (protein, UniProt Q3UA06 1-432)
chain: MDEAVGDLKQALPCVAESPAVHVEVLQRSGSTAKKEDIKSSVYRLLNRHNIVFGDYVWTEFDDPFLSRNVQSVSIVDTELKAKDPQPIDLSACTIALHIFQLNEEGPSSENLDEETENIIAASHWVLPAAEFHGLWDSLVYDVEVKSHLLDYVMTTVLFSDKNVDSNLITWNRVVLLHGPPGTGKTSLCKALAQKLTIRLSSRYRYGQLIEINSHSLFSKWFSESGKLVTKMFQKIQDLIDDKEALVFVLIDEVESLTAARNACRAGAEPSDAIRVVNAVLTQIDQIKRHSNVVILTTSNITEKIDVAFVDRADIKQYIGPPSAAAIFKIYLSCLEELMKCQIIYPRQQLLTLRELEMIGFIENNVSKLSLLLSEISRKSEGLSGRVLRKLPFLAHALYIQAPSVTIEGFLQALSLAVDKQFEEKKKLSAYV
Q: How did the binding turn out when B1 was run?
A: Its binding is “binds”.
